Laboratory results: PubChem BioAssay AID248 (DTP/NCI, 2004)
The list does not hold the whole screen: it is rich in T/C values a quarter to a half above the control, in often repeated tests (any T/C) and in doses without a T/C. Further doses and runs are listed elsewhere. T/C: endpoint of the treated group in % of that of the vehicle group. Some entries give survivors of the animals treated and no T/C: the source holds a T/C of zero for them, seemingly a mark for toxic or unscored doses. Some doses without a T/C left all or most animals alive at the check, yet need not have been tolerated: survival well below the control is almost never listed, so the zero probably covers shortened survival too. Survivors were counted at the toxicity check, usually on the fifth day, unless a day is given; later deaths do not show. Schedules are NCI's codes, read here as Q, the interval in days (D) or hours (H), X, the number of doses. Some entries hold several experiments; the values are given in rising order. Some schedules carry Z or #; the key to these is not given. For survival time, this PubChem deposit counts one and a half times the control or more as active, and values a quarter to a half above the control carry no call in these data; other NCI protocols may use other cut-offs.

Tested on: L1210 leukemia ip in BDF1 mice, survival T/C
Test: NCI In Vivo Anticancer Drug Screen. Data for tumor model L1210 Leukemia (intraperitoneal) in B6D2F1 (BDF1) mice
Conditions: T/C endpoint: mean survival time, higher T/C = longer survival
[1] = dose: 100.0 mg/kg/injection, schedule: Q01DX Z (ip), vehicle: carboxymethylcellulose (CMC)
[2] = dose: 400.0 mg/kg/injection, schedule: Q01DX001 (ip), vehicle: saline
[3] = dose: 400.0 mg/kg/injection, schedule: Q04DX003 (ip), vehicle: Klucel (hydroxypropylcellulose) (HPC)
[4] = dose: 400.0 mg/kg/injection, schedule: Q01DX009 (ip), vehicle: Klucel (hydroxypropylcellulose) (HPC)
[5] = dose: 100.0 mg/kg/injection, schedule: Q01DX009 (ip), vehicle: Klucel (hydroxypropylcellulose) (HPC)
[6] = dose: 200.0 mg/kg/injection, schedule: Q01DX009 (ip), vehicle: Klucel (hydroxypropylcellulose) (HPC)
[7] = dose: 200.0 mg/kg/injection, schedule: Q01DX001 (ip), vehicle: Klucel (hydroxypropylcellulose) (HPC)
[8] = dose: 400.0 mg/kg/injection, schedule: Q01DX001 (ip), vehicle: Klucel (hydroxypropylcellulose) (HPC)
[9] = dose: 400.0 mg/kg/injection, schedule: Q01DX001 (ip), vehicle: saline with Tween-80
[10] = dose: 400.0 mg/kg/injection, schedule: Q04DX003 (ip), vehicle: saline with Tween-80
[11] = dose: 150.0 mg/kg/injection, schedule: Q01DX001 (ip), vehicle: carboxymethylcellulose (CMC)
[12] = dose: 300.0 mg/kg/injection, schedule: Q01DX001 (ip), vehicle: carboxymethylcellulose (CMC)

CC1CN(C(=O)CCl)c2ccccc2N1C(=O)CCl (stereo unspecified)
survivor count (dose: 12.5 mg/kg/injection, schedule: Q01DX Z (ip), vehicle: carboxymethylcellulose (CMC)): 3 of 6 | survivor count (dose: 25.0 mg/kg/injection, schedule: Q01DX Z (ip), vehicle: carboxymethylcellulose (CMC)): 0 of 6 | survivor count (dose: 50.0 mg/kg/injection, schedule: Q01DX Z (ip), vehicle: carboxymethylcellulose (CMC)): 0 of 6 | survivor count [1]: 0 of 6

NCCCCC(N)C(=O)Nc1ccc(Nc2ccc(NC(=O)C(N)CCCCN)cc2)cc1 (stereo unspecified)
survivor count (dose: 100.0 mg/kg/injection, schedule: Q01DX001 (ip), vehicle: saline): 1 of 6 | survivor count (dose: 200.0 mg/kg/injection, schedule: Q01DX001 (ip), vehicle: saline): 1 of 6 | survivor count [2]: 0 of 6

COC1CCN(CCCn2c3ccccc3c3ccc(C(C)=O)cc32)CC1
survivor count [2]: 1 of 6

N#Cc1sc2ccccc2c1CBr
survivor count [3]: 6 of 6

COC1CCC(/C=C(\C#N)C2CCC([N+](=O)[O-])CC2)CC1Br (stereo unspecified)
survivor count (dose: 100.0 mg/kg/injection, schedule: Q04DX002 (ip), vehicle: saline with Tween-80): 0 of 3 | survivor count (dose: 200.0 mg/kg/injection, schedule: Q04DX002 (ip), vehicle: saline with Tween-80): 0 of 3 | survivor count (dose: 400.0 mg/kg/injection, schedule: Q04DX002 (ip), vehicle: saline with Tween-80): 0 of 3

O=C(CCN1CCCC1)c1ccc(F)cc1
survivor count (dose: 100.0 mg/kg/injection, schedule: Q01DX009 (ip), vehicle: saline): 1 of 6 and 4 of 6 | survivor count (dose: 200.0 mg/kg/injection, schedule: Q01DX009 (ip), vehicle: saline): 0 of 6 | survivor count (dose: 400.0 mg/kg/injection, schedule: Q01DX009 (ip), vehicle: saline): 0 of 6

CCOC(=O)c1ccc(C(=O)O)[n+]([O-])c1
survivor count [4]: 5 of 6

CCOC(=O)/C=C(\CBr)OC
survivor count [5]: 0 of 6 | survivor count (dose: 100.0 mg/kg/injection, schedule: Q04DX003 (ip), vehicle: Klucel (hydroxypropylcellulose) (HPC)): 1 of 6 | survivor count [6]: 0 of 6 | survivor count (dose: 200.0 mg/kg/injection, schedule: Q04DX003 (ip), vehicle: Klucel (hydroxypropylcellulose) (HPC)): 0 of 6 | survivor count [3]: 0 of 6

CC(C)N(C)N=Nc1n[nH]nc1C(N)=O
T/C [1]: 136 % of control

O=C(O)c1[nH]c(=O)[nH]c(=O)c1N1CCCCC1
survivor count (dose: 50.0 mg/kg/injection, schedule: Q01DX001 (ip), vehicle: saline): 1 of 6 | survivor count (dose: 100.0 mg/kg/injection, schedule: Q01DX001 (ip), vehicle: Klucel (hydroxypropylcellulose) (HPC)): 1 of 6 | survivor count [5]: 2 of 6 | survivor count [7]: 0 of 6 | survivor count [8]: 1 of 6

O=[N+]([O-])c1cccc(C=Nc2cccc(C(F)(F)F)c2)c1
survivor count [4]: 6 of 6

CCCOP(OCCC)OCCC
survivor count (dose: 400.0 mg/kg/injection, schedule: Q04DX003 (ip), vehicle: saline): 1 of 6

O=C(O)c1[nH]c(=O)[nH]c(=O)c1F.[Ga]
T/C (dose: 36.0 mg/kg/injection, schedule: Q01DX001 (ip), vehicle: saline with Tween-80): 128 % of control | T/C (dose: 54.0 mg/kg/injection, schedule: Q01DX001 (ip), vehicle: saline with Tween-80): 142 % of control | T/C (dose: 80.0 mg/kg/injection, schedule: Q01DX001 (ip), vehicle: saline with Tween-80): 136 % of control | T/C (dose: 100.0 mg/kg/injection, schedule: Q01DX001 (ip), vehicle: saline with Tween-80): 141 % of control | survivor count (dose: 100.0 mg/kg/injection, schedule: Q01DX009 (ip), vehicle: saline with Tween-80): 6 of 6 | T/C (dose: 118.0 mg/kg/injection, schedule: Q01DX001 (ip), vehicle: saline with Tween-80): 142 % of control | survivor count (dose: 200.0 mg/kg/injection, schedule: Q01DX009 (ip), vehicle: saline with Tween-80): 4 of 6 | survivor count (dose: 266.0 mg/kg/injection, schedule: Q01DX001 (ip), vehicle: saline with Tween-80): 3 of 6 | survivor count [9]: 0 of 6 | survivor count (dose: 400.0 mg/kg/injection, schedule: Q01DX009 (ip), vehicle: saline with Tween-80): 0 of 6 | survivor count [10]: 2 of 6 | survivor count (dose: 600.0 mg/kg/injection, schedule: Q01DX001 (ip), vehicle: saline with Tween-80): 0 of 6

S=C1NC(c2cccc(Cl)c2)N2C(=S)NC(c3cccc(Cl)c3)N12 (stereo unspecified)
survivor count (dose: 100.0 mg/kg/injection, schedule: Q01DX009 (ip), vehicle: gum acacia): 6 of 6

C=CC[Si](CC=C)(CC=C)OCC
survivor count (dose: 75.0 mg/kg/injection, schedule: Q01DX001 (ip), vehicle: other): 6 of 6

C[N+](C)(C)CC1(COC(=O)C(O)(c2ccccc2)c2ccccc2)CC1
survivor count [7]: 0 of 6 | survivor count [8]: 0 of 6

CN1C2CNC(=O)CC1C1CCC2C1 (stereo unspecified)
survivor count [11]: 2 of 6 | survivor count [12]: 0 of 6

C1CC[N-]CC1.Oc1ccccc1C=NCCN=Cc1ccccc1O.[Co]
survivor count (dose: 12.5 mg/kg/injection, schedule: Q04DX002 (ip), vehicle: saline with Tween-80): 0 of 3 | survivor count (dose: 25.0 mg/kg/injection, schedule: Q04DX002 (ip), vehicle: saline with Tween-80): 0 of 3 | survivor count (dose: 100.0 mg/kg/injection, schedule: Q04DX002 (ip), vehicle: saline): 0 of 3 | survivor count (dose: 200.0 mg/kg/injection, schedule: Q04DX002 (ip), vehicle: saline): 0 of 3 | survivor count (dose: 400.0 mg/kg/injection, schedule: Q04DX002 (ip), vehicle: saline): 0 of 3

Nc1[nH]c(=S)ncc1-c1ccccc1Cl
survivor count (dose: 50.0 mg/kg/injection, schedule: Q01DX009 (ip), vehicle: Klucel (hydroxypropylcellulose) (HPC)): 3 of 3 | survivor count [6]: 3 of 3

CC(C)C1CCC(NC(=O)Nc2ccccc2)CC1 (stereo unspecified)
survivor count (dose: 200.0 mg/kg/injection, schedule: Q04DX003 (ip), vehicle: saline with Tween-80): 6 of 6 | survivor count [10]: 0 of 6

CO[C](=O)[Hg][O]C(C)=O
survivor count (dose: 12.5 mg/kg/injection, schedule: Q04DX002 (ip), vehicle: Klucel (hydroxypropylcellulose) (HPC)): 3 of 3 | survivor count (dose: 25.0 mg/kg/injection, schedule: Q04DX002 (ip), vehicle: Klucel (hydroxypropylcellulose) (HPC)): 0 of 3 | survivor count (dose: 50.0 mg/kg/injection, schedule: Q04DX002 (ip), vehicle: Klucel (hydroxypropylcellulose) (HPC)): 0 of 3 | survivor count (dose: 100.0 mg/kg/injection, schedule: Q04DX002 (ip), vehicle: Klucel (hydroxypropylcellulose) (HPC)): 0 of 3 | survivor count (dose: 200.0 mg/kg/injection, schedule: Q04DX002 (ip), vehicle: Klucel (hydroxypropylcellulose) (HPC)): 0 of 3 | survivor count (dose: 400.0 mg/kg/injection, schedule: Q04DX002 (ip), vehicle: Klucel (hydroxypropylcellulose) (HPC)): 0 of 3

CCC(C#N)N1CC1 (stereo unspecified)
survivor count (dose: 60.0 mg/kg/injection, schedule: Q01DX001 (ip), vehicle: saline): 6 of 6 | survivor count (dose: 75.0 mg/kg/injection, schedule: Q01DX001 (ip), vehicle: carboxymethylcellulose (CMC)): 4 of 6 | survivor count [11]: 1 of 6 | survivor count [12]: 0 of 6

CCCCCCCC(O)CCC (stereo unspecified)
survivor count [4]: 4 of 6

NC(=S)N/N=C/c1ccc[nH]1
survivor count [9]: 3 of 6

C#CCCCCCCl
survivor count (dose: 400.0 mg/kg/injection, schedule: Q01DX001 (ip), vehicle: other): 1 of 6

CCOC(=O)C[n+]1ccccc1Br
survivor count (dose: 200.0 mg/kg/injection, schedule: Q01DX015 (ip), vehicle: water): 0 of 6 | survivor count (dose: 400.0 mg/kg/injection, schedule: Q01DX015 (ip), vehicle: water): 0 of 6
